Earlier results as cited in US8791095B2, “Steroidal CYP17 inhibitors/antiandrogens” (Tokai Pharmaceuticals, Inc., priority 2009, dated 2014).
Some entries share one result that the patent states for a list of compounds.

Columns and labels:
[1] = mice, s.c. 50 mg/kg
[2] = test system: LNCaP prostate cancer cells; conditions: DHT-stimulated LNCaP; read-out: IC50, growth inhibition of DHT-stimulated LNCaP cells
[3] = test system: LAPC4 prostate cancer cells; conditions: DHT-stimulated LAPC4; read-out: IC50, growth inhibition of DHT-stimulated LAPC4 cells

In the case of `C[C@]12CCC(=O)C=C1CCC1C2CC[C@]2(C)C(n3cnc4ccccc43)=CCC12` (stereo partly shown) [Compound 2, 17-(1H-benzimidazole-1-yl)androsta-4,16-diene-3-one], the “time of peak plasma level” value [1] is given as 30-to-60 minutes.
For `C[C@]12CC[C@H](O)CC1=CC[C@@H]1[C@@H]2CC[C@]2(C)C(n3cnc4ccccc43)=CC[C@@H]12` [Compound 1, 3β-hydroxy-17-(1H-benzimidazole-1-yl)androsta-5,16-diene], the IC50 [2] is given as less than 10 µM, the “time of peak plasma level” value [1] is given as 30-to-60 minutes and the IC50 [3] is given as less than 10 µM.
